# In article PMC12059050:
# Chains of the proteins cited; added tags and fusions are not shown.
# UniProt Q9UBN7: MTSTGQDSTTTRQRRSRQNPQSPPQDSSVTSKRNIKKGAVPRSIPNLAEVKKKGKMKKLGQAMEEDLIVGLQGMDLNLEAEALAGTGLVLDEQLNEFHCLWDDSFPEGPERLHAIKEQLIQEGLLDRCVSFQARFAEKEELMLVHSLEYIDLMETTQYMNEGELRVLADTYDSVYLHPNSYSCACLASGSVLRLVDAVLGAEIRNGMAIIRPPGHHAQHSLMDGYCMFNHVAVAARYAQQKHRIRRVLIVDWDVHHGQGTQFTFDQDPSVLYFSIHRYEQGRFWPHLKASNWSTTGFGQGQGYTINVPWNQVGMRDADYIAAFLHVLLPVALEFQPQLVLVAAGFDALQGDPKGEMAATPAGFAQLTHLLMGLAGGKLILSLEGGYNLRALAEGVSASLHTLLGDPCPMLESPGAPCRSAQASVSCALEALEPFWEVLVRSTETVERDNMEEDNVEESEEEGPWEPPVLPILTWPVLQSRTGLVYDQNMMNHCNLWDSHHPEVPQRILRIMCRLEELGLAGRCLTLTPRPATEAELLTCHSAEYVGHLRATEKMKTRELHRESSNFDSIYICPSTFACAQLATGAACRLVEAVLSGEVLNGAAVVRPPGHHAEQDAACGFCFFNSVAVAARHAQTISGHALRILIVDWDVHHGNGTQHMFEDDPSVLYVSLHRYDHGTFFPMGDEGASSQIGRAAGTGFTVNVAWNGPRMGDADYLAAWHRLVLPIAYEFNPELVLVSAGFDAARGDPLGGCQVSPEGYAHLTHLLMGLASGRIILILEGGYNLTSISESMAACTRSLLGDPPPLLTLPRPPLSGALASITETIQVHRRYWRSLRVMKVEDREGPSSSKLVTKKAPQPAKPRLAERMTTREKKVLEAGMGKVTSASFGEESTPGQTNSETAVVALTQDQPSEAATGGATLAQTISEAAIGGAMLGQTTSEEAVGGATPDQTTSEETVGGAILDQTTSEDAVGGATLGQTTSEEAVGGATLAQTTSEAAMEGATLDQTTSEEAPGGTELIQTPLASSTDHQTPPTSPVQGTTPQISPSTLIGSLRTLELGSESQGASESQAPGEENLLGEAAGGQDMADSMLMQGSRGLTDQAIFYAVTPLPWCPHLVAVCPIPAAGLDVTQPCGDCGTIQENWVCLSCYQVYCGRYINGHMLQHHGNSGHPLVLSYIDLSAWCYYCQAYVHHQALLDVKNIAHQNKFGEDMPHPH
# Target: TurboID-TAX1BP1 (human (endogenous in HeLa)) (UniProt Q86VP1)
# Assay: proximity labelling; HeLa knock-in cells expressing TurboID-TAX1BP1; aggrephagy conditions (8 h Btz, 15 h recovery, 3 h Baf), 50 uM biotin; RIPA lysate on streptavidin magnetic beads, label-free quantitative mass spectrometry, compared with cells expressing free TurboID or with untreated cells; several hits also by immunoblot of the purified biotinylated material
substance,measurement,value
HDAC6 (from UniProt Q9UBN7 1-1215),binding,no binding

# No constants are given. Whether binding was seen depends on the method and setting. Binding seen in cells or lysates may run through a third protein. Here binding means that the protein was enriched with, or labelled near, the bait; the list need not be complete. No binding means not detected with the bait.
